# Experimental data reported in the supplement of paper PMC4604168 (melanoma cell lines).
# The other results are listed elsewhere or left out. Single values are uncertain, as repeats are few or missing.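 Cells were imaged in 1,536-well plates, and nuclei stained with an antibody against cleaved PARP were counted against all DNA-stained nuclei to give the apoptosis fraction. Screening doses were chosen to leave most cells alive, and resting and induced cleaved-PARP levels differ strongly between cell lines.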
# Assays:
# Test in all cases: cleaved PARP positive nuclei fraction relative to DMSO control; melanoma cells; higher = more apoptosis
# Settings in all cases: library dose: low library concentration; 72 h
# CBRC034 = tested on: CBRC034 (line from a melanoma biopsy)
# COLO792 = tested on: COLO792
# COLO800 = tested on: COLO800
# COLO829 = tested on: COLO829
# G361 = tested on: G361
# IPC-298 = tested on: IPC-298
# IST-MEL1 = tested on: IST-MEL1
# LB2518-MEL = tested on: LB2518-MEL
# LOXIMVI = tested on: LOXIMVI
# MZ2-MEL = tested on: MZ2-MEL
# MeWo = tested on: MeWo
# RPMI7951 = tested on: RPMI7951
# RVH-421 = tested on: RVH-421
# SkMel28 = tested on: SkMel28
# SkMel30 = tested on: SkMel30
# SkMel5 = tested on: SkMel5
# UACC257 = tested on: UACC257
# UACC62 = tested on: UACC62
Structure (SMILES),cleaved PARP positive nuclei fraction (CBRC034),cleaved PARP positive nuclei fraction (COLO792),cleaved PARP positive nuclei fraction (COLO800),cleaved PARP positive nuclei fraction (COLO829),cleaved PARP positive nuclei fraction (G361),cleaved PARP positive nuclei fraction (IPC-298),cleaved PARP positive nuclei fraction (IST-MEL1),cleaved PARP positive nuclei fraction (LB2518-MEL),cleaved PARP positive nuclei fraction (LOXIMVI),cleaved PARP positive nuclei fraction (MZ2-MEL),cleaved PARP positive nuclei fraction (MeWo),cleaved PARP positive nuclei fraction (RPMI7951),cleaved PARP positive nuclei fraction (RVH-421),cleaved PARP positive nuclei fraction (SkMel28),cleaved PARP positive nuclei fraction (SkMel30),cleaved PARP positive nuclei fraction (SkMel5),cleaved PARP positive nuclei fraction (UACC257),cleaved PARP positive nuclei fraction (UACC62)
"C#Cc1cccc(Nc2ncnc3cc(OCCOC)c(OCCOC)cc23)c1 [erlotinib] + CCc1ccc(CCOc2ccc(CC3SC(=O)NC3=O)cc2)nc1 [pioglitazone] (first compound 0.8 µM, partner dose 2 µM)",46.5%,105%,111%,128%,51.1%,89.7%,88.2%,91.1%,36.3%,190%,214%,86.4%,22.1%,66.6%,53.4%,82.4%,235%,245%
"Cc1cc(N2CCOCC2)cc2[nH]c(-c3c(NC[C@@H](O)c4cccc(Cl)c4)cc[nH]c3=O)nc12 + CCCCCCCCCCCC1=C(O)C(=O)C=C(O)C1=O [Embelin] (first compound 0.2 µM, partner dose 1.2 µM)",91.5%,68.3%,288%,129%,106%,86.4%,27.6%,39.1%,76.7%,199%,117%,83.8%,60.1%,94.9%,19.1%,51.8%,107%,111%
"COCC[n+]1c2c(n(Cc3cnccn3)c1C)C(=O)c1ccccc1C2=O + N#Cc1c(O)c2c(-c3ccc(-c4ccccc4O)cc3)csc2[nH]c1=O [A769662] (first compound 0.0004 µM, partner dose 2 µM)",80.7%,92.7%,28.1%,104%,80.9%,118%,51.5%,181%,168%,102%,105%,41.8%,21.6%,96.8%,55.7%,69.7%,48.9%,251%
"NC(=O)Nc1cc(-c2cccc(F)c2)sc1C(=O)N[C@H]1CCCNC1 + O=C(Nc1ccccc1)c1cc([N+](=O)[O-])ccc1Cl [GW9662] (first compound 0.02 µM, partner dose 2 µM)",108%,60.6%,136%,70.5%,207%,97.8%,231%,228%,45.1%,247%,59%,160%,98.6%,100%,198%,103%,245%,122%
"Cc1ccc(NC(=O)c2cccc(N(C)C)c2)cc1NC(=O)c1ccc(O)cc1 + COc1ccc(COc2ccc(Cc3cnc(N)nc3N)cc2OC)cc1 [GW2580] (first compound 2 µM, partner dose 1 µM)",103%,50.9%,41.7%,91.9%,45.2%,49.8%,90.4%,80.9%,68.4%,116%,101%,42.8%,62.4%,87.3%,14.5%,207%,120%,79.7%
"Cc1ccc(NC(=O)c2cccc(N(C)C)c2)cc1NC(=O)c1ccc(O)cc1 + O=C(O)C(=O)Nc1sc2c(c1C(=O)O)CCNC2 [TCS401] (first compound 2 µM, partner dose 1.66667 µM)",390%,68.3%,46.2%,230%,30.3%,52.2%,129%,82.5%,58.3%,116%,151%,92.3%,101%,55%,74.6%,62%,166%,39.9%
"C#Cc1cccc(Nc2ncnc3cc(OCCOC)c(OCCOC)cc23)c1 [erlotinib] + O=C(Nc1ccccc1)c1cc([N+](=O)[O-])ccc1Cl [GW9662] (first compound 0.8 µM, partner dose 2 µM)",183%,129%,64%,109%,38.6%,159%,62.7%,101%,62.4%,175%,166%,77.9%,26.4%,188%,119%,67.9%,137%,127%
"C=CCn1c(=O)c2cnc(Nc3ccc(N4CCN(C)CC4)cc3)nc2n1-c1cccc(C(C)(C)O)n1 + O=c1cc(-c2cccc3c2Sc2ccccc2S3)oc(N2CCOCC2)c1 [KU55933] (first compound 0.02 µM, partner dose 1 µM)",57.1%,45.9%,123%,78.3%,60.4%,74.3%,51.7%,164%,49.7%,173%,54.9%,165%,102%,36.3%,536%,139%,89.5%,82.2%
"COCC[n+]1c2c(n(Cc3cnccn3)c1C)C(=O)c1ccccc1C2=O + O=C1NC(=O)/C(=C/c2ccc(-c3ccc(F)cc3O)o2)S1 [AS252424] (first compound 0.0004 µM, partner dose 1 µM)",55.2%,208%,105%,218%,186%,161%,85.2%,87.3%,76.2%,149%,27.1%,42.2%,128%,179%,18.8%,106%,51.5%,107%
"Cn1nnc2c(C(N)=O)ncn2c1=O [temozolomide] + O=S(=O)(c1ccccc1)N(CC(F)(F)F)c1ccc(C(O)(C(F)(F)F)C(F)(F)F)cc1 [T0901317] (first compound 2 µM, partner dose 1.4 µM)",79.9%,59.3%,87.1%,185%,74.4%,94.6%,18.5%,72.2%,72.4%,44%,21.7%,36.5%,44.5%,77.8%,27.9%,68.3%,192%,92%
"C#Cc1cccc(Nc2ncnc3cc(OCCOC)c(OCCOC)cc23)c1 [erlotinib] + CCN(CC)CCCCNc1ncc2cc(-c3cc(OC)cc(OC)c3)c(NC(=O)NC(C)(C)C)nc2n1 [PD173074] (first compound 0.8 µM, partner dose 0.1 µM)",41.9%,156%,101%,97%,46.4%,68.4%,113%,170%,25.9%,46.2%,112%,251%,75.1%,57.7%,86.1%,37.7%,118%,73.3%
"Cn1c(Nc2ccc(C(F)(F)F)cc2)nc2cc(Oc3ccnc(-c4ncc(C(F)(F)F)[nH]4)c3)ccc21 + Oc1cc(-c2nc(-c3ccccc3)[nH]c2-c2ccncc2)ccc1Cl [L779450] (first compound 0.08 µM, partner dose 0.2 µM)",108%,169%,65.2%,108%,466%,157%,218%,194%,71.1%,95%,94.5%,141%,179%,389%,94.6%,106%,1180%,979%
"NC(=O)Nc1cc(-c2cccc(F)c2)sc1C(=O)N[C@H]1CCCNC1 + Oc1nc(-c2ccc(C(F)(F)F)cc2)nc2c1CSCC2 [XAV939] (first compound 0.02 µM, partner dose 2 µM)",90.8%,98.5%,187%,136%,23.7%,82.2%,47.9%,198%,75.1%,121%,207%,93.2%,27.5%,91.9%,198%,144%,49.7%,393%
"Cc1nc(Nc2ncc(C(=O)Nc3c(C)cccc3Cl)s2)cc(N2CCN(CCO)CC2)n1 [dasatanib] + Oc1nc(-c2ccc(C(F)(F)F)cc2)nc2c1CSCC2 [XAV939] (first compound 0.004 µM, partner dose 2 µM)",181%,231%,66.4%,166%,46.8%,34.5%,141%,50.1%,63.8%,175%,239%,157%,129%,154%,14.2%,31.8%,210%,42%
"Nc1cccc2c1CN(C1CCC(=O)NC1=O)C2=O (configuration not stated) [lenalidomide] + O=c1cc(-c2cccc3c2Sc2ccccc2S3)oc(N2CCOCC2)c1 [KU55933] (first compound 1 µM, partner dose 1 µM)",76.3%,122%,133%,76.6%,24%,216%,107%,64.9%,48.8%,104%,154%,226%,42.4%,102%,229%,124%,51.7%,428%
"CC1(C)NC(=O)N(c2ccc([N+](=O)[O-])c(C(F)(F)F)c2)C1=O [nilutamide] + CC(C)CCN1c2nc(Nc3cc(F)c(O)c(F)c3)ncc2N(C)C(=O)C1C [BID1870] (first compound 1 µM, partner dose 0.2 µM)",49.8%,135%,98.8%,52.4%,38.3%,344%,138%,94.3%,56.5%,54.8%,56.1%,82.8%,109%,95.3%,30%,72.5%,43.2%,107%
"Cn1nnc2c(C(N)=O)ncn2c1=O [temozolomide] + O=c1cc(-c2cccc3c2Sc2ccccc2S3)oc(N2CCOCC2)c1 [KU55933] (first compound 2 µM, partner dose 1 µM)",89.4%,271%,144%,46.3%,111%,170%,68.3%,129%,14.7%,53.8%,106%,71.5%,120%,102%,211%,58.5%,101%,44.2%
"Cc1cc(N2CCOCC2)cc2[nH]c(-c3c(NC[C@@H](O)c4cccc(Cl)c4)cc[nH]c3=O)nc12 + COc1cc(N2CCC(N3CCN(C)CC3)CC2)ccc1Nc1ncc(Cl)c(Nc2ccccc2S(=O)(=O)C(C)C)n1 [NVP-TAE684] (first compound 0.2 µM, partner dose 0.08 µM)",63.3%,121%,131%,71.2%,191%,117%,234%,43.7%,99.1%,243%,146%,92.8%,59.3%,136%,42%,100%,99%,70.6%
"Cc1ccc(NC(=O)c2cccc(N(C)C)c2)cc1NC(=O)c1ccc(O)cc1 + c1cc(-c2cnn3cc(-c4ccc(OCCN5CCCCC5)cc4)cnc23)ccn1 [Dorsomorphin] (first compound 2 µM, partner dose 0.4 µM)",87.3%,107%,44.5%,120%,178%,133%,36.3%,87.9%,61.3%,61.7%,111%,300%,251%,110%,22.5%,67.6%,150%,112%

# In another format: results already given.
Structure (SMILES)	cleaved PARP positive nuclei fraction (CBRC034)	cleaved PARP positive nuclei fraction (COLO792)	cleaved PARP positive nuclei fraction (COLO800)	cleaved PARP positive nuclei fraction (COLO829)	cleaved PARP positive nuclei fraction (G361)	cleaved PARP positive nuclei fraction (IPC-298)	cleaved PARP positive nuclei fraction (IST-MEL1)	cleaved PARP positive nuclei fraction (LB2518-MEL)	cleaved PARP positive nuclei fraction (LOXIMVI)	cleaved PARP positive nuclei fraction (MZ2-MEL)	cleaved PARP positive nuclei fraction (MeWo)	cleaved PARP positive nuclei fraction (RPMI7951)	cleaved PARP positive nuclei fraction (RVH-421)	cleaved PARP positive nuclei fraction (SkMel28)	cleaved PARP positive nuclei fraction (SkMel30)	cleaved PARP positive nuclei fraction (SkMel5)	cleaved PARP positive nuclei fraction (UACC257)	cleaved PARP positive nuclei fraction (UACC62)
Cn1c(Nc2ccc(C(F)(F)F)cc2)nc2cc(Oc3ccnc(-c4ncc(C(F)(F)F)[nH]4)c3)ccc21 + Oc1cc(-c2nc(-c3ccccc3)[nH]c2-c2ccncc2)ccc1Cl [L779450] (first compound 0.08 µM, partner dose 0.2 µM)	108%	169%	65.2%	108%	466%	157%	218%	194%	71.1%	95%	94.5%	141%	179%	389%	94.6%	106%	1180%	979%
NC(=O)Nc1cc(-c2cccc(F)c2)sc1C(=O)N[C@H]1CCCNC1 + Oc1nc(-c2ccc(C(F)(F)F)cc2)nc2c1CSCC2 [XAV939] (first compound 0.02 µM, partner dose 2 µM)	90.8%	98.5%	187%	136%	23.7%	82.2%	47.9%	198%	75.1%	121%	207%	93.2%	27.5%	91.9%	198%	144%	49.7%	393%
